Measurements published in patent US20250127985A1, “IMPLANTABLE AND REFILLABLE DRUG DELIVERY RESERVOIR SYSTEM WITH POROUS METAL FRIT FOR SUSTAINED INTRACEREBROVENTRICULAR DELIVERY AND METHODS OF USE” (Genentech, Inc., priority 2022, published 2025).
At least one compound was matched to its structure with a doubt left.

What was measured:
[1] = Diffusion coefficient of the therapeutic agent in water; format: physicochemical; settings: Temp C. 20; estimated with the equation from the BSA value and MW
[2] = In vitro release of Fluorescein from reservoir device with or without RCE into PBS sink; settings: 1 mL reservoir, RCE 011, RCE 012 and RCE 627 compared, FIG. 8

For O=C1OC2(c3ccc(O)cc3Oc3cc(O)ccc32)c2ccccc21 [Fluorescein], the “Diff. Coeff” value [1] was 6.9E−06 cm^2/s and the “Fluorescein release rate constants (exponential fit)” value [2] was “significantly different release rate constants from one another”.
